From doi:10.1101/2020.02.14.950204 come the findings set out here.

Assay [1] addresses T1, BRCA2 and MEILB2-associated protein1 (BRME1) (mouse (endogenous in testis)) (UniProt Q6DIA7).
T1 sequence: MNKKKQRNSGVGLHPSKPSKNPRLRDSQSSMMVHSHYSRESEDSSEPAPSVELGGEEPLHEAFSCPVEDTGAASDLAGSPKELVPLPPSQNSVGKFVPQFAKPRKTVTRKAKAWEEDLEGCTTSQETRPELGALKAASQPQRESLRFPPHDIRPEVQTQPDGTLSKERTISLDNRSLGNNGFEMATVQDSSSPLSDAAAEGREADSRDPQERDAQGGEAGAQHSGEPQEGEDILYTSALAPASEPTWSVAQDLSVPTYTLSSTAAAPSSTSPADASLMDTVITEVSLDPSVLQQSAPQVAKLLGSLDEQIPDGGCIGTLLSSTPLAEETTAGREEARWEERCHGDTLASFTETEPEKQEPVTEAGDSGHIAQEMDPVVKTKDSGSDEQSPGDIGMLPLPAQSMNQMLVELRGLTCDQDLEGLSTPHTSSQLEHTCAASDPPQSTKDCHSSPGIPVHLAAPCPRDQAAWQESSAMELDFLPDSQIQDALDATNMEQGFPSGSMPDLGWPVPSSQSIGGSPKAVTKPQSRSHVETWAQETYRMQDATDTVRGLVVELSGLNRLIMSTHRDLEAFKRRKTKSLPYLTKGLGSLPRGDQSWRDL
Kind of assay: affinity purification with mass spectrometry.

Assay [2] concerns the target T2, BRCA2 and MEILB2-associated protein1 (BRME1) (mouse (endogenous in testis)), Q6DIA7.
T2 chain: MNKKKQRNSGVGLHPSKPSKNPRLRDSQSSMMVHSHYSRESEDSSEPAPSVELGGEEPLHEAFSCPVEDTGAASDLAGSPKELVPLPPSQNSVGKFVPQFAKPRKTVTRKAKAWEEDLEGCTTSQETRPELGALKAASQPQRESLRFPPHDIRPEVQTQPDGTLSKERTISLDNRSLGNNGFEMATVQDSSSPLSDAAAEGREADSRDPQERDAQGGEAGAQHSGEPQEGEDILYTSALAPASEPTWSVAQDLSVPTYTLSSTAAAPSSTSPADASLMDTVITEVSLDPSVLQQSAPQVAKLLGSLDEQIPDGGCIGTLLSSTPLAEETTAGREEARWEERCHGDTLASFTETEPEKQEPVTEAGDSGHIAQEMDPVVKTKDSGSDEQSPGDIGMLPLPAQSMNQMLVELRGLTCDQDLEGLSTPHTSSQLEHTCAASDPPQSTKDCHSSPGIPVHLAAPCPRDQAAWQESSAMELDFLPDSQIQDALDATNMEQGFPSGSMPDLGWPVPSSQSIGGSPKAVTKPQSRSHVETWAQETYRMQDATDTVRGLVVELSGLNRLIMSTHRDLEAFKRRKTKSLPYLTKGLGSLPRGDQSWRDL
Kind of assay: affinity purification with mass spectrometry. The settings on record: remark: other sources report otherwise.

Results are given in words; binding and its absence hold for the method and conditions named. In cells and extracts the contact can be indirect. A yes stands for co-enrichment or nearness to the bait. Other partners may have been found.

B1: MEILB2/HSF2BP (protein, UniProt Q9D4G2 1-338)
chain: MAATVGDGSGTEEACRNMESKEEFVKVRKKDLERLTTEVMQIRDFLPRILNGELLESFQKLKMVEKNLERKEQELEQLIMDREHFKARLETAQADSGREKKEKLALRQQLNEAKQQLLQQAEYCTQMGAVTCTLLWGVSSSEEVVKTILGGDKALKFFNITGQTMESFVKSLDGDVKEVDSDENQFVFALAGIVTNVAAIACGREFLVNSSRVLLDTMLQLLGDLKPGQCTKLKVLMLMSLYNVSINSKGLKYITESPGFIPLLWWLLSDPDAEVCLHTLRLIQSVVLEPDVFSKVASELQSSLPLQRILAMSKSRNSHLQSAAQELLEDLRALDCNV
In the case of B1, in assay [1], the binding entry is given as “binds”.

B2: RPA1, Q8VEE4 1-623 (protein)
chain: MVGHLSEGAIEVMIQQENTSIKPILQVINIRPISTGNRSPRYRLLMSDGLNTLSSFMLATQLNTLVEGGQLASNCVCQVHKFIVNTLKDGRKVVVLMDLEVMKSAEDVGLKIGNPVPYNEGYGQQQQQQQQQQQQAVPSPASAATPPASKPQPQNGSLGMGSTAAKAYGASKPFGKPAGTGLLQPSGGTQSKVVPIASLTPYQSKWTICARVTNKSQIRTWSNSRGEGKLFSLELVDESGEIRATAFNEQVDKFFPLIEVNKVYYFSKGALKIANKQFSAVKNDYEMTFNNETSVLPCEDGHHLPTVQFDFTGIGDLESKAKDALVDIIGICKSYEDSIKITVKSNNREVAKRNIYLMDMSGKVVTTTLWGEDADKFDGSRQPVMAIKGARVSDFGGRSLSVLSSSTVIVNPDIPEAYKLRGWFDSEGQALDGVSISDHRSGGAGGGNTNWKTLHEAKSENLGQGDKADYFSTVAAVVFLRKENCMYQACPTQDCNKKVIDQQNGLYRCEKCDREFPNFKYRMILSANIADFQENQWVTCFQESAEAILGQNTMYLGELKEKNEQAFEEVFQNANFRSFTFRIRVKLETYNDESRIKATVMDVKPVDFRDYGRRLIANIRKNM
For the molecule B2, the binding result in assay [2] was “binds”.

B3: MEIOB, Q9D513 1-470 (protein)
chain: MAKFFALKNFTALSDLHPNMANLKIIGIVIGKTDVKGFPDRKNIGSERYTFSFTIRDSPCHFVNVSSWGSEDYIRSLSESFRVAECVIIENPLIQRKDTEREEKFSPATPSNYKLLLSENHSMVKVCSPYEVDTKLLSLIHLPVKESRDYYSLADIVANGHSLDGRIINVLAAVRSVGEPKYFTTSDRRKGQRCEVKLFDETEPSFTMTCWDNESILLAQSWMARETVIFASDVRINFNKFQNCMAATVISKTIITVNPDTPEANILLNYIRENKETNVADEIDSYLKESVNLNTIVDVYTVEQLKVKALKSEGKADPFYGILYAYISTLNIDDETTKVVRNRCSSCGYIVNEASNTCTICNQDSSRLKSFFLSFDVLVDLTDHTGTLHSCSLSGSIAEETLGCTINEFLTMTSEQKTKLKWQLLLERSKIYLKLILSHRARGGLKVTILSCKLADPTEASRNLARQGHT
Consider B3, for which the binding entry in assay [2] is “binds”.
